Consider two molecules from PMC9172573, “Covalent labeling of a chromatin reader domain using proximity-reactive cyclic peptides†” (Chemical Science, 2022).

No constants are given. Whether binding was seen depends on the method and setting. Some binding calls cover weakened binding; strength is not graded here. Sequences can lack the tags named with a protein.

The assay addresses T1, His6-MBP-PHD3 (PHD3 domain of histone demethylase KDM5A) (UniProt P29375).
T1 sequence: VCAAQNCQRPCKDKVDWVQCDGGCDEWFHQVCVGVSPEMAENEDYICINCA
Kind of assay: fluorescence polarisation; competition: recombinant His6-MBP-PHD3 incubated with the 10mer H3K4me3 tracer (C-terminal fluorescent label), then varying concentrations of the competing peptide; Ki; both purified. A general note: Polarisation of emitted light reports the rotation of a fluorescent probe.

With ARTKQT (N-terminal methyl; trimethyllysine at 4) [N-terminally methylated H3K4me3 6mer peptide (3)], the binding result is given as “binds”.
Under ARTKQT (monomethylated guanidino group of R2; trimethyllysine at 4) [H3K4me3 6mer peptide 10 (R2 guanidino group monomethylated)] stands “binds”.
